# The supplement of paper PMC12819154, “High-throughput peptide-centric local stability assay extends protein–ligand identification to membrane proteins, tissues and bacteria” (Nature Structural & Molecular Biology, 2025)
# The chains behind the UniProt entries cited, without tags or fusion partners. Where a name states a change or a piece, a line headed by the entry shows the natural chain unless it says otherwise.
# UniProt Q9CZU6: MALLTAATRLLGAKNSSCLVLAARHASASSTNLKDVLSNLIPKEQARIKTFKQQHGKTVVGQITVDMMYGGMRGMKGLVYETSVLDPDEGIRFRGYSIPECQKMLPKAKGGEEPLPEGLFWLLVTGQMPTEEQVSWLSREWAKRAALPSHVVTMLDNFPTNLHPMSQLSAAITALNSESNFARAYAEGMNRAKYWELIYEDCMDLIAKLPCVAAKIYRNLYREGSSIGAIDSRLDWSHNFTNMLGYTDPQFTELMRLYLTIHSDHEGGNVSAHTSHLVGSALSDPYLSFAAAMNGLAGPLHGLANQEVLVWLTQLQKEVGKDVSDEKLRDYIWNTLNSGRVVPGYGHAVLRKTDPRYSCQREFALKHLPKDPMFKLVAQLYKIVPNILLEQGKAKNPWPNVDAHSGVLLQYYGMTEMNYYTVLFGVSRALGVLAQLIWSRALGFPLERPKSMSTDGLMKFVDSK
# UniProt Q9CYW4: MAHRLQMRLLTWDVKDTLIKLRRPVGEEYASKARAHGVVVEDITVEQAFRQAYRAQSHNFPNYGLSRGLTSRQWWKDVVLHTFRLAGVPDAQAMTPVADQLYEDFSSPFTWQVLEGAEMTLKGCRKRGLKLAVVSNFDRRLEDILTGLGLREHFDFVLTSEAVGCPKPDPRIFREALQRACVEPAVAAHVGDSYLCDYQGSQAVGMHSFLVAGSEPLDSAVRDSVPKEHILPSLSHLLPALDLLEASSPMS
# UniProt Q9D0E1: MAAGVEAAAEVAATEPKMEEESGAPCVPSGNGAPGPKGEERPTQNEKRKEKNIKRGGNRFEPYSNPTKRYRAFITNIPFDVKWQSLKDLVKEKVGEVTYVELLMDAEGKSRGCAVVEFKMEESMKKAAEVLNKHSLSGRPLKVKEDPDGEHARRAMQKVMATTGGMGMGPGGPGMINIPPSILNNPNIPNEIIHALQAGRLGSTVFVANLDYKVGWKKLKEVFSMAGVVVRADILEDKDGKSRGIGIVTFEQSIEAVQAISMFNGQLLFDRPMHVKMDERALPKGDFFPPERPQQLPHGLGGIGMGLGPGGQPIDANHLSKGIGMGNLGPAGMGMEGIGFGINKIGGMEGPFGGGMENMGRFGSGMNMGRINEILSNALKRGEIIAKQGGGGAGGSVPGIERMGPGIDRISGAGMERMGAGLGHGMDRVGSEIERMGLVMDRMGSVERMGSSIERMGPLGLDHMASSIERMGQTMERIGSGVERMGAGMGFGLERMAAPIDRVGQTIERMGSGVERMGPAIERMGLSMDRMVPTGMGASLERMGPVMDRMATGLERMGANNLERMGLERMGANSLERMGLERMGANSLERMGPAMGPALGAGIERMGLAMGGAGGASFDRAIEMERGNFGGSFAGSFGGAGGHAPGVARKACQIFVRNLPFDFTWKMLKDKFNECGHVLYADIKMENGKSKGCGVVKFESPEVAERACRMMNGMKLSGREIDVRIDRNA
# UniProt Q9D0F3: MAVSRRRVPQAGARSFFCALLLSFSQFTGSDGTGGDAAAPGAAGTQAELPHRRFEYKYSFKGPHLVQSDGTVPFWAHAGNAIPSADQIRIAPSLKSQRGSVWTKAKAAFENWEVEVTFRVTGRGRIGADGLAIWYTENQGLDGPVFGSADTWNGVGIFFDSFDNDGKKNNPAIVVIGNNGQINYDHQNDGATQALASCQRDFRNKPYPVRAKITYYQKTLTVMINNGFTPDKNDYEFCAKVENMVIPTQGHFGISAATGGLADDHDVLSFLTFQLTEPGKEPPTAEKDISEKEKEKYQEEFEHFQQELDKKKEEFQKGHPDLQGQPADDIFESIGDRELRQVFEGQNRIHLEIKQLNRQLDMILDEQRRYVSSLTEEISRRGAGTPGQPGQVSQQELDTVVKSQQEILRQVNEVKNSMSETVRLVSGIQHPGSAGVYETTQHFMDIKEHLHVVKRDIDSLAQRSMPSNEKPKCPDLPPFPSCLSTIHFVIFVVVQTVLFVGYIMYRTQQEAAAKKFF
# The other results are listed elsewhere or left out. Most values lie at the level of the controls, where differences are scatter.
# Compound: CN[C@@H]1C[C@H]2O[C@@](C)([C@@H]1OC)n1c3ccccc3c3c4c(c5c6ccccc6n2c5c31)C(=O)NC4 [staurosporine]
# Experiment: log2 fold change of tryptic peptide abundance, ligand vs vehicle (limited proteolysis) (log2 ratio); higher = more trypsin-susceptible (destabilized)
# Details: ligand concentration: 20 uM; sample: mouse liver crude lysate; replicate design: treated separately
row,Target,log2 fold change
1,"UniProt Q9CZU6 (peptide sequence: GYSIPECQK, peptide start residue: 95)",0.209
2,"UniProt Q9CYW4 (peptide sequence: AQSHNFPNYGLSR, peptide start residue: 55)",0.192
3,"UniProt Q9D0E1 (peptide sequence: LKEVFSMAGVVVR, peptide start residue: 219)",-0.432
4,"UniProt Q9D0F3 (peptide sequence: RYVSSLTEEISR, peptide start residue: 369)",-0.461
